The values below are quoted from earlier work in patent publication US20180338899A1, “INHIBITORS FOR METHYLATION-RELATED ENZYMES HAT1 AND KAT8” (priority 2015, published 2018).

The conditions of this series: interview form of commercially available medicine; cited from earlier work.

For `C[N+]1(C)CCC(OC(=O)C(O)(c2ccccc2)C2CCCC2)C1` (stereo not shown) [glycopyrrolate], the “maximum effective blood concentration (Cmax)” value was 40 ng/mL.
